These are yes or no findings as the source states them, for the method shown. In cells and extracts the contact can be indirect. These calls come from enrichment with a bait or labelling near it, and not all partners need be listed.
Molecular target: SFB-tagged IP6K1 (full length) (human) (UniProt Q92551)
Experiment: affinity purification with mass spectrometry; SFB-tagged bait expressed in HEK293T; lysis in NETN buffer (20 mM Tris-HCl pH 8.0, 100 mM NaCl, 1 mM EDTA, 0.5% Nonidet P-40) at 4°C; tandem purification on streptavidin-sepharose (biotin elution) and S-protein agarose; in-gel trypsin digest, LTQ Orbitrap; replicate sets; SFB-GFP as control

Amino acid sequences for entries named in this document (tags omitted).
UniProt Q92551: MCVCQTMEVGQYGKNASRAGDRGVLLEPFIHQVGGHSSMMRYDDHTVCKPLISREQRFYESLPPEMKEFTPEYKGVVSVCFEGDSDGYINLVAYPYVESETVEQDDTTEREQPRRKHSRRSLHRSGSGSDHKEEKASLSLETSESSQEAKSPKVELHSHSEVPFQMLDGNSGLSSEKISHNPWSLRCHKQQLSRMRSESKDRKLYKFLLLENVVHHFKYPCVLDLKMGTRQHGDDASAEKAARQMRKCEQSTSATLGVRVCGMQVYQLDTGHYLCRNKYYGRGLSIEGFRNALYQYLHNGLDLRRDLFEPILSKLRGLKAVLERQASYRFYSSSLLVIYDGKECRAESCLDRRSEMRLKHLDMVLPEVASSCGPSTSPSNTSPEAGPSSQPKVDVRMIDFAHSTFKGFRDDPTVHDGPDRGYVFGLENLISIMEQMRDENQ
UniProt Q04637: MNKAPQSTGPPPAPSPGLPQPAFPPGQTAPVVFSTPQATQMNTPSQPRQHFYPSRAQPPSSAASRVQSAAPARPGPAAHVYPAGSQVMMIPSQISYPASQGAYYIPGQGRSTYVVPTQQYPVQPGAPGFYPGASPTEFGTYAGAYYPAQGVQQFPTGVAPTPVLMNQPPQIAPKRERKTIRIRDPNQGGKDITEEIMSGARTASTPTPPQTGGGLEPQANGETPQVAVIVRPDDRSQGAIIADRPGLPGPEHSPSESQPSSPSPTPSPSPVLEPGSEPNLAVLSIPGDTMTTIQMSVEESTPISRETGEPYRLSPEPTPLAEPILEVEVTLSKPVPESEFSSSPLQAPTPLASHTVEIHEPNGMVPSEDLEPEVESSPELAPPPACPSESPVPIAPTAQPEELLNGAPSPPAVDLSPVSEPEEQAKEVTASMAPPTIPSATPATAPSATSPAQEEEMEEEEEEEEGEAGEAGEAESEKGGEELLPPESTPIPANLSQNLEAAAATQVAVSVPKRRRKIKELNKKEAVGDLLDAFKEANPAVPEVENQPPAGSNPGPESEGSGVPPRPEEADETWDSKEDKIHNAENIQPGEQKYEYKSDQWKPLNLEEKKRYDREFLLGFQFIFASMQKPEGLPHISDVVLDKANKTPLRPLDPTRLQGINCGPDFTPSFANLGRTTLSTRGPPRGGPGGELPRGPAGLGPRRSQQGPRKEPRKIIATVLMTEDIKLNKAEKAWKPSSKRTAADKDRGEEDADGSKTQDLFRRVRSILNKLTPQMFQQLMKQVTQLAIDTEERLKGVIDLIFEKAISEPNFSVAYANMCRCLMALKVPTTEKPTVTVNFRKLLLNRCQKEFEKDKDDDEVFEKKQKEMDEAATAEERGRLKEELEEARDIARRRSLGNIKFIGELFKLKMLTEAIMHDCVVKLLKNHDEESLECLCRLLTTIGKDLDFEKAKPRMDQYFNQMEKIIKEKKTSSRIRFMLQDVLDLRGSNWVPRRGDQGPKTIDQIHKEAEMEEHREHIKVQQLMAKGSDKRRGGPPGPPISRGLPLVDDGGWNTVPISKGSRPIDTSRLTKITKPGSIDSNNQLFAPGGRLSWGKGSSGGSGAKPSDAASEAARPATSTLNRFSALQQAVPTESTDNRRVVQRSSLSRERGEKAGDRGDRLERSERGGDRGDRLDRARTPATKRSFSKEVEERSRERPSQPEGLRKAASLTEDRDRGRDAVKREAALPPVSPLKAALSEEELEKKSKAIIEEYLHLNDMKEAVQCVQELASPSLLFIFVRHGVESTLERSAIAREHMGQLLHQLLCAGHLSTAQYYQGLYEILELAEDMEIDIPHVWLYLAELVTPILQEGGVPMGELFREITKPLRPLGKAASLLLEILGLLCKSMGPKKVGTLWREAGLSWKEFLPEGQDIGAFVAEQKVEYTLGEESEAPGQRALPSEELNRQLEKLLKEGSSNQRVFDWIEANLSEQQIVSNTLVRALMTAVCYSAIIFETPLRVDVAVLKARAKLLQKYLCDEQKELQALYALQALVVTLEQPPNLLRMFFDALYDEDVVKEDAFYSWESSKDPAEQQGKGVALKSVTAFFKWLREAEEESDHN
UniProt Q14978: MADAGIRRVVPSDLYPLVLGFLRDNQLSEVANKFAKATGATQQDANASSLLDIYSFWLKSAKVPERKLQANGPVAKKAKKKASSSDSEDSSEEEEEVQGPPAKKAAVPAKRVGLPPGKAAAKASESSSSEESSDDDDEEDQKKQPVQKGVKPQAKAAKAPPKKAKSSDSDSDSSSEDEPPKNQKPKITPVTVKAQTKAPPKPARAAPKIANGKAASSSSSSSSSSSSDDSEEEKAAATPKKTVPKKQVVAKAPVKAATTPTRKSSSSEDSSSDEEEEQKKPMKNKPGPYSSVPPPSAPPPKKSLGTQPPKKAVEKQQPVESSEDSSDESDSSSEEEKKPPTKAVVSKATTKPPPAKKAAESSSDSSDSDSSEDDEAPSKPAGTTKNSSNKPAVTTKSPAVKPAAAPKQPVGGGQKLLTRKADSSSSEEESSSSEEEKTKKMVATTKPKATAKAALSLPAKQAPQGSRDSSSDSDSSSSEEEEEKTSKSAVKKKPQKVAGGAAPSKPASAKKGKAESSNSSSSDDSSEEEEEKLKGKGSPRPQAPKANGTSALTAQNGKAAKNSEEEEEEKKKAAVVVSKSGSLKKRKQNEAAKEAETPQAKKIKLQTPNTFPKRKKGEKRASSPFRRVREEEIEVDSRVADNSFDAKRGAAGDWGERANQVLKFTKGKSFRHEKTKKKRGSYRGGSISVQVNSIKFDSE
UniProt P67870: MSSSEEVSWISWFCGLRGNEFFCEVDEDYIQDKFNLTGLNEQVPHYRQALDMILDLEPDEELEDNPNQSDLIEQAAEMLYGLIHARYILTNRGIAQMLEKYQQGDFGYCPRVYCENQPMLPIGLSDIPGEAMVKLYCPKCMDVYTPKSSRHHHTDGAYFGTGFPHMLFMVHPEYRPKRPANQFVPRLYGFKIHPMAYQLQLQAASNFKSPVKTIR

Substance	binding
EIF4G1, endogenous (from UniProt Q04637 1-1599)	binds
catalytic α’ subunit of CK2 (CSK22), endogenous (from UniProt P19784 1-350) (enzyme)	binds
endogenous NOLC1 (from UniProt Q14978 1-699)	binds
regulatory β subunit of CK2 (CSK2B), endogenous (from UniProt P67870 1-215)	binds
